The list shows only some results of the screen, not a fair sample: it gathers tests that were run many times, whatever their T/C, doses with no T/C, and many T/C values between a quarter and a half above the control. Further doses and runs are listed elsewhere. T/C: endpoint of the treated group in % of that of the vehicle group. Some entries give survivors of the animals treated and no T/C: the source files T/C as zero there, which appears to mark a toxic dose or a test without result, not a measured value. Some survivor counts are full or nearly so, which does not show that the dose was tolerated: the source hardly ever lists a survival T/C far under the control, and the zero likely stands for such cases as well. Counts of survivors are from the toxicity check (mostly the fifth day) where no day follows; animals may have died later. Schedule codes are those of the source, taken here to give the interval after Q, in days (D) or hours (H), and the number of doses after X. Some entries hold several experiments; their values stand side by side, smallest first. For survival time, this PubChem deposit counts one and a half times the control or more as active, and values a quarter to a half above the control carry no call in these data; other NCI protocols may use other cut-offs. Some T/C values are followed by the survivors on the day toxicity was checked, most often the fifth; without a count, all were alive then. Brackets with × give the number of equal values in this list. Starred links: 1 amine or outer side, 2 acyl side, 3 side chain; linkers in the order of their positions; H or OH if unused. Positions of bridges follow the written chain, without caps; N, C: chain ends. Non-standard residues stand in square brackets, D forms with d. Residues, ends and D or L forms follow the SMILES beside them. Chains are numbered I, II in the order given. ξ: configuration not given here. *: point of attachment. Quinaldoyl(3-OH,6-OMe) = COc1ccc2nc(C(=O)*)c(O)cc2c1; X1 = CCC(=O)OC1CC=NN([*:1])C1C(=O)[*:2]; X2 = CC(=O)OC1CC=NN([*:1])C1C(=O)[*:2]; ξNMeVal(3-OH) = CNC(C(=O)O)C(C)(C)O; Sar = CNCC(=O)O
Test system: BDF1 mice, M5076 sarcoma ip, median survival T/C
Experiment: NCI In Vivo Anticancer Drug Screen. Data for tumor model Sarcoma M5076 (intraperitoneal) in B6D2F1 (BDF1) mice
Settings: T/C endpoint: median survival time, higher T/C = longer survival
Description: The antitumor activity of compounds was measured in mice bearing transplantable tumors. Survival or tumor size were measured and the results are expressed as the measurement made in the treated group (T) divided by the measurement made in the vehicle treated control group (C). The tumor model used in this assay is Sarcoma M5076 (intraperitoneal) in B6D2F1 (BDF1) mice

[1] = dose: 60.0 mg/kg/injection, schedule: Q04DX005 (ip), vehicle: saline
[2] = dose: 120.0 mg/kg/injection, schedule: Q04DX004 (ip), vehicle: saline
[3] = dose: 120.0 mg/kg/injection, schedule: Q04DX005 (ip), vehicle: saline
[4] = dose: 800.0 mg/kg/injection, schedule: Q04DX004 (ip), vehicle: saline with Tween-80
[5] = dose: 800.0 mg/kg/injection, schedule: Q04DX005 (ip), vehicle: saline with Tween-80

CC(=O)OCc1cc(=O)n(C)c2c3c4c(cc12)c(C)cc(=O)n4CO3
T/C (dose: 10.0 mg/kg/injection, schedule: Q01DX009 (ip), vehicle: Klucel (hydroxypropylcellulose) (HPC)): 141 % of control
T/C (dose: 40.0 mg/kg/injection, schedule: Q04DX005 (ip), vehicle: Klucel (hydroxypropylcellulose) (HPC)): 127 % of control
survivor count (dose: 80.0 mg/kg/injection, schedule: Q01DX009 (ip), vehicle: Klucel (hydroxypropylcellulose) (HPC)): 0 of 10 on day 9
survivor count (dose: 160.0 mg/kg/injection, schedule: Q01DX009 (ip), vehicle: Klucel (hydroxypropylcellulose) (HPC)): 0 of 10 on day 9
survivor count (dose: 160.0 mg/kg/injection, schedule: Q04DX005 (ip), vehicle: Klucel (hydroxypropylcellulose) (HPC)): 10 of 10 on day 9
survivor count (dose: 320.0 mg/kg/injection, schedule: Q04DX005 (ip), vehicle: Klucel (hydroxypropylcellulose) (HPC)): 10 of 10 on day 9

S=c1nc[nH]c2nc[nH]c12
T/C (dose: 40.0 mg/kg/injection, schedule: Q04DX005 (ip), vehicle: alkali diluted with saline): 131 % of control [7 of 8 alive on day 17]
T/C (dose: 160.0 mg/kg/injection, schedule: Q04DX005 (ip), vehicle: alkali diluted with saline): 141 % of control
survivor count (dose: 320.0 mg/kg/injection, schedule: Q04DX005 (ip), vehicle: alkali diluted with saline): 7 of 8 on day 17

O=c1[nH]cc(F)c(=O)[nH]1
T/C (dose: 13.0 mg/kg/injection, schedule: Q04DX004 (ip), vehicle: saline): 135 % of control
T/C (dose: 15.0 mg/kg/injection, schedule: Q04DX004 (ip), vehicle: saline): 103, 109, 111, 116 % of control
T/C (dose: 15.0 mg/kg/injection, schedule: Q04DX005 (ip), vehicle: saline): 104, 115, 116, 125 % of control
T/C (dose: 24.0 mg/kg/injection, schedule: Q01DX009 (ip), vehicle: saline): 127 % of control
T/C (dose: 30.0 mg/kg/injection, schedule: Q04DX004 (ip), vehicle: saline): 107 [9 of 10 alive on day 9], 109, 111, 122 % of control
T/C (dose: 30.0 mg/kg/injection, schedule: Q04DX005 (ip), vehicle: saline): 108, 113, 120, 125 % of control
T/C (dose: 36.0 mg/kg/injection, schedule: Q01DX009 (ip), vehicle: saline): 132 % of control
T/C (dose: 36.0 mg/kg/injection, schedule: Q04DX004 (ip), vehicle: saline): 136 % of control [8 of 9 alive]
T/C (dose: 50.0 mg/kg/injection, schedule: Q04DX005 (ip), vehicle: saline): 148 % of control
T/C (dose: 60.0 mg/kg/injection, schedule: Q04DX004 (ip), vehicle: saline, evaluated on day 5): 141 % of control
T/C (dose: 60.0 mg/kg/injection, schedule: Q04DX004 (ip), vehicle: saline, evaluated on day 75): 122, 127, 130, 133 % of control
T/C [1]: 128 (2×) and 130 % of control [9 of 10 alive on day 9]
survivor count [1]: 10 of 10 on day 9
survivor count (dose: 100.0 mg/kg/injection, schedule: Q04DX005 (ip), vehicle: saline): 10 of 10
T/C [2]: 144 % of control
survivor count [2]: 5 of 10 on day 9, 9 of 10 on day 9, 10 of 10 on day 9
T/C [3]: 148 % of control
survivor count [3]: 6 of 10 on day 9, 9 of 10 on day 9, 8 of 8 on day 9

Oc1cc(O)c(-c2c(O)cc(O)cc2O)c(O)c1 (tested in a mixture with another compound)
T/C (dose: 7.5 mg/kg/injection, schedule: Q01DX009 (ip), vehicle: saline): 127 % of control
T/C (dose: 25.0 mg/kg/injection, schedule: Q01DX009 (ip), vehicle: saline): 127 % of control [9 of 10 alive on day 9]
survivor count (dose: 30.0 mg/kg/injection, schedule: Q01DX009 (ip), vehicle: saline): 5 of 10 on day 9
survivor count (dose: 60.0 mg/kg/injection, schedule: Q01DX009 (ip), vehicle: saline): 0 of 10 on day 9

CCC(=O)OC1CC=NN2C(=O)C(NC(=O)c3nc4ccc(OC)cc4cc3O)COC(=O)C(C(C)(C)O)N(C)C(=O)CN(C)C(=O)CNC(=O)C3C(OC(C)=O)CC=NN3C(=O)C(NC(=O)c3nc4ccc(OC)cc4cc3O)COC(=O)C(C(C)(C)O)N(C)C(=O)CN(C)C(=O)CNC(=O)C12 (stereo unspecified) (I: {Quinaldoyl(3-OH,6-OMe)}-S[X1]G[Sar][ξNMeVal(3-OH)] / II: {Quinaldoyl(3-OH,6-OMe)}-S[X2]G[Sar][ξNMeVal(3-OH)]; ester I:1-II:C, I:C-II:1; configuration not given here)
T/C (dose: 18.75 micrograms/kg/injection, schedule: Q01DX009 (ip), vehicle: DMSO): 136 % of control
survivor count (dose: 150.0 micrograms/kg/injection, schedule: Q01DX009 (ip), vehicle: DMSO): 5 of 10
survivor count (dose: 300.0 micrograms/kg/injection, schedule: Q01DX009 (ip), vehicle: DMSO): 0 of 10 and 0 of 10 on day 9

COc1cc2c(cc1OC)[C@@H]1C(=O)c3ccc4c(c3O[C@@H]1CO2)C[C@H](C(C)C)O4
T/C (dose: 3.12 mg/kg/injection, schedule: Q01DX009 (ip), vehicle: Klucel (hydroxypropylcellulose) (HPC)): 127 % of control
T/C (dose: 6.25 mg/kg/injection, schedule: Q01DX009 (ip), vehicle: Klucel (hydroxypropylcellulose) (HPC)): 125 % of control
survivor count (dose: 12.5 mg/kg/injection, schedule: Q01DX009 (ip), vehicle: Klucel (hydroxypropylcellulose) (HPC)): 1 of 10 on day 9
survivor count (dose: 25.0 mg/kg/injection, schedule: Q01DX009 (ip), vehicle: Klucel (hydroxypropylcellulose) (HPC)): 0 of 10 on day 9 and 2 of 10 on day 9

COC1N(C2CC(O)C(CO)O2)C(=O)NC(=O)C1(F)Br (stereo unspecified)
T/C (dose: 200.0 mg/kg/injection, schedule: Q04DX004 (ip), vehicle: saline): 126 % of control

CC(CN1CC(=O)NC(=O)C1)N1CC(=O)NC(=O)C1 (stereo unspecified)
T/C (dose: 100.0 mg/kg/injection, schedule: Q04DX004 (ip), vehicle: saline with Tween-80): 106, 107, 112, 121 % of control
T/C (dose: 100.0 mg/kg/injection, schedule: Q04DX005 (ip), vehicle: saline with Tween-80): 106, 110, 121 % of control (2×)
T/C (dose: 200.0 mg/kg/injection, schedule: Q04DX004 (ip), vehicle: saline with Tween-80): 109, 112, 114, 118 % of control
T/C (dose: 200.0 mg/kg/injection, schedule: Q04DX005 (ip), vehicle: saline with Tween-80): 111, 113, 130, 134 % of control
T/C (dose: 400.0 mg/kg/injection, schedule: Q04DX004 (ip), vehicle: saline with Tween-80): 112, 120 [9 of 10 alive on day 9], 126 [9 of 10 alive on day 9], 131 % of control [9 of 10 alive on day 9]
T/C (dose: 400.0 mg/kg/injection, schedule: Q04DX005 (ip), vehicle: saline with Tween-80): 111, 124, 125, 131 % of control
T/C [4]: 114 [9 of 10 alive on day 9] and 138 % of control [9 of 10 alive on day 9]
survivor count [4]: 7 of 10 on day 9 and 8 of 10 on day 9
T/C [5]: 120, 120 [8 of 9 alive on day 9], 150 % of control [8 of 10 alive on day 9]
survivor count [5]: 8 of 10 on day 9

CC1=C[P+](c2ccccc2)(c2ccccc2)C=C(c2ccccc2)O1
T/C (dose: 10.0 mg/kg/injection, schedule: Q04DX004 (ip), vehicle: saline + alcohol): 125 % of control
survivor count (dose: 20.0 mg/kg/injection, schedule: Q04DX004 (ip), vehicle: saline + alcohol): 1 of 10 on day 14

Reference: PubChem BioAssay AID286 (DTP/NCI, 2004)
